# From article PMC9811352
# Chains of the proteins cited; added tags and fusions are not shown. Lines headed by an entry give the natural chain unless they say otherwise; changes in a name come on top.
# UniProt Q9QYC3: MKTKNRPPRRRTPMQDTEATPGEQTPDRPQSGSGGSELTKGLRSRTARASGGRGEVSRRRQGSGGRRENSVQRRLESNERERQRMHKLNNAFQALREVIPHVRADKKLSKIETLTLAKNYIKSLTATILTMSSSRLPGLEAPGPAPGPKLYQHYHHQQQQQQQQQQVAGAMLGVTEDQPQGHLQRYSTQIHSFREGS
# UniProt P15806: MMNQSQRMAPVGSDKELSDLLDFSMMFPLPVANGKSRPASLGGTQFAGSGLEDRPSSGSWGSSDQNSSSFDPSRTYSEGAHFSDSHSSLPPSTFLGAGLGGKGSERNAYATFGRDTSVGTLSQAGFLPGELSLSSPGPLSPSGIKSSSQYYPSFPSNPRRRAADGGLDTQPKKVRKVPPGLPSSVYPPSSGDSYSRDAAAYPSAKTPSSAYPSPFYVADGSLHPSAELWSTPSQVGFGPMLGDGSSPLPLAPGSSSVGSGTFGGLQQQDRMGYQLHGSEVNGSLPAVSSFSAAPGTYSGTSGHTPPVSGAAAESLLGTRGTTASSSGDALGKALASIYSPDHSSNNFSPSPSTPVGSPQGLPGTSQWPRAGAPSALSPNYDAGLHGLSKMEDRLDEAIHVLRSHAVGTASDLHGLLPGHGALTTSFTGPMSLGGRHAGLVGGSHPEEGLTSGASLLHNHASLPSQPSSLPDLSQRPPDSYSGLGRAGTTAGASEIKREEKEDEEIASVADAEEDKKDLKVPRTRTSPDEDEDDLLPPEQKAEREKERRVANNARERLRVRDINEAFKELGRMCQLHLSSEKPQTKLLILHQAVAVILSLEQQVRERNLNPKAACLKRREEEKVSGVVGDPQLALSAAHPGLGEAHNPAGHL
# These are yes or no findings as the source states them, for the method shown. In cells and extracts the contact can be indirect. Some results given as binding are weak or reduced against the parent protein; the word gives no strength.
# Target: Mist1 (Bhlha15) with an N-terminal biotin acceptor sequence, biotinylated in vivo by E. coli BirA (mouse (endogenous in mouse plasmablasts)) (UniProt Q9QYC3)
# Assay: pull-down; streptavidin pulldown of biotinylated Mist1 from nuclear extracts of LPS-differentiated Bhlha15 fl/fl Rosa26 BirA/BirA plasmablasts; E2A detected in the precipitate
substance,measurement,value
E2A (Tcf3) (from UniProt P15806 1-651),binding,binds
